Construct, isoform or probe ends are uncertain for at least one entry. For some of these results: No signal at the amounts used counts as a negative. For some of these results: Where a protein sequence is shown, tags need not be part of it.
Tests used:
MBP-TaWRKY13-A = biological target: T1, MBP-TaWRKY13-A (UniProt W5DRW6); experiment: EMSA; details: poly-dIdC, competed by 100x and 200x unlabeled probe; EMSA 10 ul: 1 ul binding buffer (composition not given), 0.5 ul poly-dIdC, 0.5 ul glycerol, 0.5 ul 1 M KCl (about 50 mM), 400 ng protein, 4 C 20 min; pH not stated; recombinant protein; label: 5' biotin
T1 sequence (looked up, limits assumed): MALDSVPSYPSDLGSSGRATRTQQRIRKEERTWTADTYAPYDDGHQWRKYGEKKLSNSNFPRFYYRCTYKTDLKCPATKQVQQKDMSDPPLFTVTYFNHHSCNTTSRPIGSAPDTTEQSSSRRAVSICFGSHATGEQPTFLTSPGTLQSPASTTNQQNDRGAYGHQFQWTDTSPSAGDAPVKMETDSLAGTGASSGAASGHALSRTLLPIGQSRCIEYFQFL

MBP = MBP (UniProt P0AEX9); experiment: EMSA; details: MBP only control; EMSA 10 ul: 1 ul binding buffer (composition not given), 0.5 ul poly-dIdC, 0.5 ul glycerol, 0.5 ul 1 M KCl (about 50 mM), 400 ng protein, 4 C 20 min; pH not stated; recombinant protein; label: 5' biotin

Sequence	binding result (MBP-TaWRKY13-A)	binding result (MBP)
CCGTCATGGACGCGGGCTGTTGGTCAACGCACGAGAGGAGGCATAAGGAC (double strand) [Probe3 TaLOX6 promoter]	binds	–
CTCTTCCCGGCCAGCTGCTTTGACCCATTTCGTGTCCGGCGATCTTAACC (double strand) [Probe2 TaLOX6 promoter]	binds	–
TCACGGTCAAACACATTATCCTGTCCGAAAAGTGAAAACTAACACAAAACGTCACCGTTTTTCCTTGACTCAG (double strand) [Probe1 AtLOX6 promoter]	binds	no binding

— article PMC8442999
